In ChEMBL document CHEMBL3046280, “Synthesis of 1-amidoalkyl-2-naphthols and oxazine derivatives with study of their antibacterial and antiviral activities” (Med Chem Res, 2013) one finds inhibition zone (IZ) data, which are given here for one sequence.

Holding throughout (format): functional, organism-based
One test concerns Escherichia coli. Briefly: Antibacterial activity against Escherichia coli assessed as growth inhibition at 0.042 uM/ml.
The test system of another test is Pseudomonas aeruginosa. Briefly: Antibacterial activity against Pseudomonas aeruginosa assessed as growth inhibition at 0.042 uM/ml.
A further test has as its system Staphylococcus aureus. Put plainly: Antibacterial activity against Staphylococcus aureus assessed as growth inhibition at 0.042 uM/ml.

GENTAMICIN: the inhibition zone (IZ) in the test with Escherichia coli turned out to be 29 mm; in the test with Pseudomonas aeruginosa it was 27 mm; in the test on Staphylococcus aureus it was 28 mm.
